No constants are given. Whether binding was seen depends on the method and setting. Binding seen in cells or lysates may run through a third protein. Some binding calls cover weakened binding; strength is not graded here.
Assays:
Test in all cases: co-IP
[1] = target: T1, flotillin-1 (mouse (endogenous in C57BL/6 mouse brain)) (UniProt O08917)
T1 sequence: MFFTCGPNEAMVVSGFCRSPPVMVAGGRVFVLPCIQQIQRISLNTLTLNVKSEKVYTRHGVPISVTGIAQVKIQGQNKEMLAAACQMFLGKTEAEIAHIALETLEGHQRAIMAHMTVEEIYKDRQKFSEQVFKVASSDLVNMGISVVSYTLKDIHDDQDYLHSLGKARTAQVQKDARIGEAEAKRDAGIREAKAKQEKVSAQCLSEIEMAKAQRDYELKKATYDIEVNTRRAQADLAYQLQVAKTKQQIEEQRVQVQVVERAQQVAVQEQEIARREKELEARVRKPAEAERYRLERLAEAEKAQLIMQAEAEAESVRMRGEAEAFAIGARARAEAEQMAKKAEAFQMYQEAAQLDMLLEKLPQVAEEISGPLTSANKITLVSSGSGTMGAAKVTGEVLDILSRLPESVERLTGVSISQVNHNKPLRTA

[2] = target: cellular prion protein (PrPc) (mouse (endogenous in C57BL/6 mouse brain)) (UniProt P04925)
[3] = target: T2, Cbl-associated protein (CAP) (mouse (endogenous in C57BL/6 mouse brain)) (UniProt Q62417)
T2 sequence: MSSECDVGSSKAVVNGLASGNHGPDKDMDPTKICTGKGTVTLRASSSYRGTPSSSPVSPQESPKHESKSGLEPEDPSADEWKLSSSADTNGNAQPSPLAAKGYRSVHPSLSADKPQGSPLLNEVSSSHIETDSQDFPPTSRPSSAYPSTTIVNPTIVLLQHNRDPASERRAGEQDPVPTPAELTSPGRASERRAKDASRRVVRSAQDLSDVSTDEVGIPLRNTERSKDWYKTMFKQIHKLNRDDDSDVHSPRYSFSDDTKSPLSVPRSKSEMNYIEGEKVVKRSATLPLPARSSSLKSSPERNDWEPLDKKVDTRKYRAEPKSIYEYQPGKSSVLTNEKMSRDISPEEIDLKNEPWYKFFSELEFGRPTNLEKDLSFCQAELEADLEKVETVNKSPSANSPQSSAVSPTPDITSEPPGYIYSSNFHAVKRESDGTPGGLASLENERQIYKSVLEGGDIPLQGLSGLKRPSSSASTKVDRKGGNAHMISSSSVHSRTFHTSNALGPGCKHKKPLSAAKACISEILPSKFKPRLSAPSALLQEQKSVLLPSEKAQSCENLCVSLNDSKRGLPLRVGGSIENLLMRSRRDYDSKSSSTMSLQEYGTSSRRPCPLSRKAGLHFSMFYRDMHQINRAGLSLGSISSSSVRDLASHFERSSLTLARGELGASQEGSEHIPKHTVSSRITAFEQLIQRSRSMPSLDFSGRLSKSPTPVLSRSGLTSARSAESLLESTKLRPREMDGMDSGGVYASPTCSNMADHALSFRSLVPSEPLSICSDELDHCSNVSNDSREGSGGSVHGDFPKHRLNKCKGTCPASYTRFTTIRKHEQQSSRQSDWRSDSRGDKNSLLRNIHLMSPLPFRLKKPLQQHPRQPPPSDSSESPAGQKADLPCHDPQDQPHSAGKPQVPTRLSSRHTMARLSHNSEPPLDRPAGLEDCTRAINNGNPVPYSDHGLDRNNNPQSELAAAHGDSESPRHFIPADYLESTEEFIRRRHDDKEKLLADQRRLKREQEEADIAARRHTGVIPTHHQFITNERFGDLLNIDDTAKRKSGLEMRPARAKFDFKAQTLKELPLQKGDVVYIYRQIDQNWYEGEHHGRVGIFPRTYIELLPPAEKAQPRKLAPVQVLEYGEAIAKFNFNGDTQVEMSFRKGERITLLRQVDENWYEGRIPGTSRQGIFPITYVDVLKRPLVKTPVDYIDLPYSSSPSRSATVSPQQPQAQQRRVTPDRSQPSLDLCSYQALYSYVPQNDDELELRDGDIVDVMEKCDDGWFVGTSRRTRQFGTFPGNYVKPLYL

In the case of “cellular prion protein (PrPc) (from UniProt P04925 23-230)”, the binding [1] is reported as “binds”.

B1: Cbl-associated protein (CAP) (protein, UniProt Q62417 1-1290)
chain: T2 sequence
In the case of B1, the binding [2] is reported as “binds”.

B2: flotillin-1 (protein, UniProt O08917 1-428)
chain: T1 sequence
With B2 the binding [3] was “binds” and the binding [2] was “binds”.
